The values below come from paper PMC12503277.

Protein sequences, listed by entry. Tags and fused reporters are not part of them.
UniProt Q8N884: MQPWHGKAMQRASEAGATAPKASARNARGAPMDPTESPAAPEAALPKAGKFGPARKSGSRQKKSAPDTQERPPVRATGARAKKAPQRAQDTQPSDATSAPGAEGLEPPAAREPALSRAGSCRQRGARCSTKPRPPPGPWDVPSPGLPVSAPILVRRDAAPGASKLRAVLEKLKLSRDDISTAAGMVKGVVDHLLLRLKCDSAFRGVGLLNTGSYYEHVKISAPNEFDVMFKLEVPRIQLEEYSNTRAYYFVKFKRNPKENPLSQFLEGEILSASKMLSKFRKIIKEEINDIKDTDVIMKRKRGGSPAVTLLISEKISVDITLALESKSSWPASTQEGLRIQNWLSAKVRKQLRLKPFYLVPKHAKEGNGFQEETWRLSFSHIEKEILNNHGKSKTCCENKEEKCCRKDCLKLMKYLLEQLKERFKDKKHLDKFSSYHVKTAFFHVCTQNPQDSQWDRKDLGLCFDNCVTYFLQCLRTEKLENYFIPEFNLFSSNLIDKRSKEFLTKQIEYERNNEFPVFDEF

For one experiment, the target named is T1, HA-DDX21 (human) (UniProt Q9NR30).
T1 sequence: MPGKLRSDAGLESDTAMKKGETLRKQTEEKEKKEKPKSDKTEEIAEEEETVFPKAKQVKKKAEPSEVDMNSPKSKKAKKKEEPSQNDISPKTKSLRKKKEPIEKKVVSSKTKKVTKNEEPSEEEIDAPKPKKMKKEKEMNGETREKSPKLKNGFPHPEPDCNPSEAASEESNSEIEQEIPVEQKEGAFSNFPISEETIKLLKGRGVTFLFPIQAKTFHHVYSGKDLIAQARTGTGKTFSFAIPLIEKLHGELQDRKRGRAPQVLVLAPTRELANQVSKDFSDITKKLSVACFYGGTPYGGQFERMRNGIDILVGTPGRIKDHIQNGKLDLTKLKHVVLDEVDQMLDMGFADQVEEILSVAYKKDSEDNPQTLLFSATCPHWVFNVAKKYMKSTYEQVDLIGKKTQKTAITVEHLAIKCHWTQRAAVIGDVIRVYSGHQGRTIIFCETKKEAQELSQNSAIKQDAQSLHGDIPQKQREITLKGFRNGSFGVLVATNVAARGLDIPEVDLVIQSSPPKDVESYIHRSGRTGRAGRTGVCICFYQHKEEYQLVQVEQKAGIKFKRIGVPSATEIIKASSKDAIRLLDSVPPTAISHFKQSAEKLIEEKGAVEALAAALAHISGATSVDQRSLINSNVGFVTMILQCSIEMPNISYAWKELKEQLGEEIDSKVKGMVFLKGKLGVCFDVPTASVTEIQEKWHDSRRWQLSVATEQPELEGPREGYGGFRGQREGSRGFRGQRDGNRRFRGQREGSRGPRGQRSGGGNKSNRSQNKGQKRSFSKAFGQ
Nature of the experiment: co-IP.

Experiment [1] concerns the target T2, Flag-DDX21 (full-length) (human) (UniProt Q9NR30).
T2 sequence: T1 sequence
Nature of the experiment: co-IP.

Results are given in words; binding and its absence hold for the method and conditions named. Binding seen in cells or lysates may run through a third protein. Some entries that bind do so weakly or less than the wild type. Sequences can lack the tags named with a protein.

On to “Flag-cGAS (cyclic GMP-AMP synthase) (from UniProt Q8N884 1-522)”, for which the binding result in the experiment with HA-DDX21 (human) is “binds”.

As to “HA-cGAS (cyclic GMP-AMP synthase) (from UniProt Q8N884 1-522)”, the binding entry in experiment [1] is on record as “binds”.
